{
  "sequences": {"note": "Amino acid sequences for entries named in this document (tags omitted). A change or cut given only in a name is not applied to a line headed by its entry.", "UniProt Q9H6U6": "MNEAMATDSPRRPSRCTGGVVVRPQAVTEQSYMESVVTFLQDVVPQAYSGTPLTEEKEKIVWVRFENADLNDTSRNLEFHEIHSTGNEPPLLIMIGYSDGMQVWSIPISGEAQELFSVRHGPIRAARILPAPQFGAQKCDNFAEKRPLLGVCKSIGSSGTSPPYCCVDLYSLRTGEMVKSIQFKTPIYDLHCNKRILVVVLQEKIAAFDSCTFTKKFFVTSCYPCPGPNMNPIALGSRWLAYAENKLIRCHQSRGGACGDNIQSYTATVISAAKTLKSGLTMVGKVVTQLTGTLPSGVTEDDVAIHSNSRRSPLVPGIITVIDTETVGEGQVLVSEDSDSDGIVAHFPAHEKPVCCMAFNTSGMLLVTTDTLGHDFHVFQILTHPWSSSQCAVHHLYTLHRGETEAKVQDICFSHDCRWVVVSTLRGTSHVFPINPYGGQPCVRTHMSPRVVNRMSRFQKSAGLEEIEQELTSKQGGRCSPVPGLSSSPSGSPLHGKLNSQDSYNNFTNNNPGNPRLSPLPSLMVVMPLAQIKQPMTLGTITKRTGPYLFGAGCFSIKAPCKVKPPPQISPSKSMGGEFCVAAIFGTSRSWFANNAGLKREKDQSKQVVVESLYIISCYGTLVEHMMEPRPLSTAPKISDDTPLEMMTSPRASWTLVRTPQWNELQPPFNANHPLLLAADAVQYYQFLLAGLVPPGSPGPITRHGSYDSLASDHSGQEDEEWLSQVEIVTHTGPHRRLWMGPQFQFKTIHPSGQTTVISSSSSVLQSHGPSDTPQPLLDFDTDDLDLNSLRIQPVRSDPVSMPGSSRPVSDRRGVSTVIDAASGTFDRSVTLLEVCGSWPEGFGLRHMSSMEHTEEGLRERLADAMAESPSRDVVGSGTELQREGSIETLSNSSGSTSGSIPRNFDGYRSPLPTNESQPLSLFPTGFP", "UniProt Q9H9Y4": "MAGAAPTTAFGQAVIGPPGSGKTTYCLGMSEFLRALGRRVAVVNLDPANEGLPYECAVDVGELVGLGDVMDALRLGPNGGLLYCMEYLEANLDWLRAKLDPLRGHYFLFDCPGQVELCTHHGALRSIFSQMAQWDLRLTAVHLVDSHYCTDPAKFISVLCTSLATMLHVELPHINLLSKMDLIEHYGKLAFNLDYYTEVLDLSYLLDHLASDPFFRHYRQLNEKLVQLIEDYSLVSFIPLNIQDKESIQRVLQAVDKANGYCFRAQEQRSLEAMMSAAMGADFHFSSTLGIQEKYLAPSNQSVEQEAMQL", "UniProt Q9C0E8": "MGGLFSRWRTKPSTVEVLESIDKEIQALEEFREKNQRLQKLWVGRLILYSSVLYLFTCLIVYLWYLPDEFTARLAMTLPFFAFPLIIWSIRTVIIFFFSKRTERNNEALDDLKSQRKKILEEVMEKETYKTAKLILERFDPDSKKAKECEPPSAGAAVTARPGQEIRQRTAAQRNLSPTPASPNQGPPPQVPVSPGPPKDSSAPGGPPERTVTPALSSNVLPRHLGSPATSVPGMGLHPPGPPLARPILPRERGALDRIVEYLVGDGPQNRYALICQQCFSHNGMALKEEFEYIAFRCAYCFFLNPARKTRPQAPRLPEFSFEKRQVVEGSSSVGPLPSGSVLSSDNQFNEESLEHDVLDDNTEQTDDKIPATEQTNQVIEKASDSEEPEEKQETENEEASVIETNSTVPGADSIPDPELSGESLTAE", "UniProt Q9H875": "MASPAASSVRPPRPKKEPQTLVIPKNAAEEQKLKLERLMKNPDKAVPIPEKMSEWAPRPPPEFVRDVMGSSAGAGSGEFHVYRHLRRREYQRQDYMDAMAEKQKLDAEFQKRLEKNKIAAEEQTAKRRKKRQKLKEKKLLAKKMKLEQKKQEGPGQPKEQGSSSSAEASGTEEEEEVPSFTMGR", "UniProt Q9HBL7": "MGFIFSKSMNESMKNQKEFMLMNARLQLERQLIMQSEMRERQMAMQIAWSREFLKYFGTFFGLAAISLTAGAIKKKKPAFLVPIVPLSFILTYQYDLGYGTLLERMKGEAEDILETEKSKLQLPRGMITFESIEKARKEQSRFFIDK", "UniProt Q9NPA0": "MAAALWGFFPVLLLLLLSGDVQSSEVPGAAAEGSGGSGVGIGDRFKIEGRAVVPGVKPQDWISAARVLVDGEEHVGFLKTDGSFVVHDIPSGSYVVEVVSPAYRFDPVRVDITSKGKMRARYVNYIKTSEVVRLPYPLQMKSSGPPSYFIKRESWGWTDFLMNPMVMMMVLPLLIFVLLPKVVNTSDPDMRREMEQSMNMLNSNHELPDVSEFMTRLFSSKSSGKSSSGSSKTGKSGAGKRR", "UniProt Q9H9Y6, whole entry": "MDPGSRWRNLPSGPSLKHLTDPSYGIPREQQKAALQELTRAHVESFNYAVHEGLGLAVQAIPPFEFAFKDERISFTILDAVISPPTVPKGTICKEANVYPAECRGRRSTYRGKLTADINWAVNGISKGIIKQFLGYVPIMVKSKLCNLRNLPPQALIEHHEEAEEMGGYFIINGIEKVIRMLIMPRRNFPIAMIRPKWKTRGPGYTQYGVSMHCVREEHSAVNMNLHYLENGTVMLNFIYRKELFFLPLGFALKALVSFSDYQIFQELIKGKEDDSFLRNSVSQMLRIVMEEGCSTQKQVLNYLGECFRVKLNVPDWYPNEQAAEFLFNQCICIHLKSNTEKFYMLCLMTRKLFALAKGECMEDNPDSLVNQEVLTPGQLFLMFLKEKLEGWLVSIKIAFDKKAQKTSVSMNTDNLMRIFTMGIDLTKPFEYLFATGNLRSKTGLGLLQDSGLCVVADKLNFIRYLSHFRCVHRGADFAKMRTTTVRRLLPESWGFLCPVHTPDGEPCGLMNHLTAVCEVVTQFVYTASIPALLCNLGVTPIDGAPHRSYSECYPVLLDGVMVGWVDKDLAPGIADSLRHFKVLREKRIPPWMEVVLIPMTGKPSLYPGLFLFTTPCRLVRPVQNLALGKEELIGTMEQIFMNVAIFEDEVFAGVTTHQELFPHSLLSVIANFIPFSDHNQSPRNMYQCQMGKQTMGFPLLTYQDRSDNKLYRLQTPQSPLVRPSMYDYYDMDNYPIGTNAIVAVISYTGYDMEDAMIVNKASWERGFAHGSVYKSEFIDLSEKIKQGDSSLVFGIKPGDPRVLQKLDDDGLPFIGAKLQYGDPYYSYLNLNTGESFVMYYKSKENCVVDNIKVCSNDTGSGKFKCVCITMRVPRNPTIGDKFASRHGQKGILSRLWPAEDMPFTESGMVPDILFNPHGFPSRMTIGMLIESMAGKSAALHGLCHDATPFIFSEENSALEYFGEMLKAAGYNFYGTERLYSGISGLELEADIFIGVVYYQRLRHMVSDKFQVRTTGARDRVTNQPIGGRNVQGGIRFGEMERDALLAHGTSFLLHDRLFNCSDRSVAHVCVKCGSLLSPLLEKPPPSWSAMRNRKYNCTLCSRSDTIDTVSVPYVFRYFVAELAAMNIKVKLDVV", "UniProt Q9NPD8": "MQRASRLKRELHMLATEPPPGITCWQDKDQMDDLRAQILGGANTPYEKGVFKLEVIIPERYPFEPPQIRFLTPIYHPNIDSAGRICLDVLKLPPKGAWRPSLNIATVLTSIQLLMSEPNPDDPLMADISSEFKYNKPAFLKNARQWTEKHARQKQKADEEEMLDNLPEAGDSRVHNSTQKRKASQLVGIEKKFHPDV", "UniProt Q9H3N1": "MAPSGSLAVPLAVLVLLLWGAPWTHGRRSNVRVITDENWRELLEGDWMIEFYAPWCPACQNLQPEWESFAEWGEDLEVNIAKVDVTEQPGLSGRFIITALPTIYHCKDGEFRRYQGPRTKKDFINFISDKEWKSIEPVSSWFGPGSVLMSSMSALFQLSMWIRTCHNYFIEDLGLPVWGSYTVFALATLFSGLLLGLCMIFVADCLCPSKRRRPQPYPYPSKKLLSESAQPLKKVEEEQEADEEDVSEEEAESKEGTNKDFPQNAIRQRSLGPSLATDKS", "UniProt Q9H2K8": "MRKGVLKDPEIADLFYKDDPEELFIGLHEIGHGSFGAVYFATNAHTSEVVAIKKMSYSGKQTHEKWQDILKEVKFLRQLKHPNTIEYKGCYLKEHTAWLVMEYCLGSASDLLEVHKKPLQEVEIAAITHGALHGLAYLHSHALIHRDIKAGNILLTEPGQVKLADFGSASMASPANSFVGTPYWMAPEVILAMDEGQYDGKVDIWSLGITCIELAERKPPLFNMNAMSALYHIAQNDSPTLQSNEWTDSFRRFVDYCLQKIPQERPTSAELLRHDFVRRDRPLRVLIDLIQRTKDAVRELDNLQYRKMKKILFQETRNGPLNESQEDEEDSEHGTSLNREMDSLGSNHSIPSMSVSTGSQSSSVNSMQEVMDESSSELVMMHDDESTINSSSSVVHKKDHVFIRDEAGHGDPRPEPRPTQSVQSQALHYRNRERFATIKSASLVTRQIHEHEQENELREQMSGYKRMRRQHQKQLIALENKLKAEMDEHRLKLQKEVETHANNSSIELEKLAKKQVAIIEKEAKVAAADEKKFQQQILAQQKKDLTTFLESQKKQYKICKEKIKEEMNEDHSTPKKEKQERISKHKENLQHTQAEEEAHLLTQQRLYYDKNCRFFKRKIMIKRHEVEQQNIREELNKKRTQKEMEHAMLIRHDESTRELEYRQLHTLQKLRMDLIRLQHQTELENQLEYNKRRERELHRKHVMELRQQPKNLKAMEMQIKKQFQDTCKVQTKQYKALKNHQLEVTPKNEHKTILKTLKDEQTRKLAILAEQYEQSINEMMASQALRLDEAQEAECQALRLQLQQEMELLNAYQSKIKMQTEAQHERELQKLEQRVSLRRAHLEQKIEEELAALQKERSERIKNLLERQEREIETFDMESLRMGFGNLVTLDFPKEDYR", "UniProt Q9HA47": "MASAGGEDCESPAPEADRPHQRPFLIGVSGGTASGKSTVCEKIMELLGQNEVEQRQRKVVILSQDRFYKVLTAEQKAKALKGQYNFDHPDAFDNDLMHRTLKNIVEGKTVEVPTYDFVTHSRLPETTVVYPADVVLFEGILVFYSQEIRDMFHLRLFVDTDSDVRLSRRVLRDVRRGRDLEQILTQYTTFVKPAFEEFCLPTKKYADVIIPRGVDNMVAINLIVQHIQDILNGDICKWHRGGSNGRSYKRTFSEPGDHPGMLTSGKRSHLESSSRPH", "UniProt Q9HB71, whole entry": "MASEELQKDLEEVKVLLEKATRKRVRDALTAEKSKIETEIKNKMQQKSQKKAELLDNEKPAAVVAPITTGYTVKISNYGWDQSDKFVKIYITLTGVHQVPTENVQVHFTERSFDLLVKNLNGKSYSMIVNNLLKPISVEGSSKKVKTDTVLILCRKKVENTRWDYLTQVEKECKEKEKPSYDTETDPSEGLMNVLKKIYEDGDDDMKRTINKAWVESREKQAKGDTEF", "UniProt Q9H9B1": "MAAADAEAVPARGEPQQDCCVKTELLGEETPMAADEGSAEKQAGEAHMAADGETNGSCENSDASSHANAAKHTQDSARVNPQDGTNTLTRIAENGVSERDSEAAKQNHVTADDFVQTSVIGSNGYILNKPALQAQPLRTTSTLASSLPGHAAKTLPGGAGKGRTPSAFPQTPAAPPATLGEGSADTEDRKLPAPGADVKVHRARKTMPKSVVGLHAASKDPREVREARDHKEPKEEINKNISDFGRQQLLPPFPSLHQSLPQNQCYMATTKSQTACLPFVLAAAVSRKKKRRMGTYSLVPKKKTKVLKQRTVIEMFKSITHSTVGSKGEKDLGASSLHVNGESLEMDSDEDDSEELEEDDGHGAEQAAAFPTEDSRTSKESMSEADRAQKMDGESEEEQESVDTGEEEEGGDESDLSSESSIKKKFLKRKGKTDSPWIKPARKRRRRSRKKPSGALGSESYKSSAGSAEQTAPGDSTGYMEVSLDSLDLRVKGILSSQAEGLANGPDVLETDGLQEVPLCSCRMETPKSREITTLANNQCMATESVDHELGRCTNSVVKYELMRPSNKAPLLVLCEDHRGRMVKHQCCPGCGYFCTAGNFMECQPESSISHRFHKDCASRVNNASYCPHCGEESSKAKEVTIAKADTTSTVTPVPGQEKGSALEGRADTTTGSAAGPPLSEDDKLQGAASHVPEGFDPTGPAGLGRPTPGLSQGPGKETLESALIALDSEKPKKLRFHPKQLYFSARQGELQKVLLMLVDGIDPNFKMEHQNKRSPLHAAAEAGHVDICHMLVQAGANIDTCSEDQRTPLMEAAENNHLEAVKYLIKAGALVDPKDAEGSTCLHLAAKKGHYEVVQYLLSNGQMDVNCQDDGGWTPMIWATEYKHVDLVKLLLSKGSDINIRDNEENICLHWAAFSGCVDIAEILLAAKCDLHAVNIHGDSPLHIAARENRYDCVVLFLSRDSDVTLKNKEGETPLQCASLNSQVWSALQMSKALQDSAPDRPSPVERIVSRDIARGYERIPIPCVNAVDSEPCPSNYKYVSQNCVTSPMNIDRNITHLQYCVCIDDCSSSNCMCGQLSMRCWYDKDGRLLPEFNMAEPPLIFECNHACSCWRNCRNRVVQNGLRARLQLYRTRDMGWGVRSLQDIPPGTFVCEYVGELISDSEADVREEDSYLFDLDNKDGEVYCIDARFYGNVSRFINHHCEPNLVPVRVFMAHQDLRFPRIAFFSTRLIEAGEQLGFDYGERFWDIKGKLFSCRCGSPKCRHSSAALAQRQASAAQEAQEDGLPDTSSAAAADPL"},
  "source": "the supplement of paper PMC6411743",
  "compound": "Nc1ncnc2c1ncn2[C@@H]1O[C@H](COP(=O)(O)OP(=O)(O)NP(=O)(O)O)[C@@H](O)[C@H]1O [adenylyl imidodiphosphate]",
  "test": "NP40-soluble protein abundance relative to vehicle (solubility fold change) (ratio); higher = more soluble protein in presence of AMP-PNP",
  "method_in_brief": "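Eight concentrations, 0.1 to 10 mM, were tested on Jurkat crude lysate for 10 min at room temperature and then 3 min at 37 °C, in three independent experiments. The lysate was solubilised with 0.8% NP40 and benzonase, ultracentrifuged, and the supernatant TMT-labelled for LC-MS/MS. Each value is the fold change against the detergent-processed vehicle in its own replicate, from vsn-normalised intensities.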",
  "note": "± gives the standard deviation of the averaged measurements. This is a selection; strong and weak results do not stand in their true shares. Most values lie at the level of the controls, where differences are scatter.",
  "data": [
    {"target": "UniProt Q9H6U6 and related entries", "values": [
      {"measurement": "NP40-soluble protein abundance", "setting": "concentration: 0.1mM", "value": "1 ± 0.039"},
      {"measurement": "NP40-soluble protein abundance", "setting": "concentration: 0.5mM", "value": "0.983 ± 0.043"}
    ]},
    {"target": "UniProt Q9H6K5 and related entries", "values": [
      {"measurement": "NP40-soluble protein abundance", "setting": "concentration: 0.1mM", "value": "0.998 ± 0.013"},
      {"measurement": "NP40-soluble protein abundance", "setting": "concentration: 0.5mM", "value": "0.974 ± 0.032"}
    ]},
    {"target": "GPN2 (UniProt Q9H9Y4)", "values": [
      {"measurement": "NP40-soluble protein abundance", "setting": "concentration: 0.1mM", "value": "0.991 ± 0.01"},
      {"measurement": "NP40-soluble protein abundance", "setting": "concentration: 0.5mM", "value": "0.996 ± 0.044"}
    ]},
    {"target": "UniProt Q9H0A0 and related entries", "values": [
      {"measurement": "NP40-soluble protein abundance", "setting": "concentration: 0.1mM", "value": "1.35 ± 0.23"},
      {"measurement": "NP40-soluble protein abundance", "setting": "concentration: 0.5mM", "value": "1.43 ± 0.097"}
    ]},
    {"target": "UniProt Q9H903 and related entries", "values": [
      {"measurement": "NP40-soluble protein abundance", "setting": "concentration: 0.1mM", "value": "0.983 ± 0.047"},
      {"measurement": "NP40-soluble protein abundance", "setting": "concentration: 0.5mM", "value": "1.01 ± 0.031"}
    ]},
    {"target": "UniProt Q9H9J4 and related entries", "values": [
      {"measurement": "NP40-soluble protein abundance", "setting": "concentration: 0.1mM", "value": "1.01 ± 0.025"},
      {"measurement": "NP40-soluble protein abundance", "setting": "concentration: 0.5mM", "value": "1.02 ± 0.017"}
    ]},
    {"target": "UniProt Q9C0E8 and related entries", "values": [
      {"measurement": "NP40-soluble protein abundance", "setting": "concentration: 0.1mM", "value": "0.986 ± 0.047"},
      {"measurement": "NP40-soluble protein abundance", "setting": "concentration: 0.5mM", "value": "1.02 ± 0.067"}
    ]},
    {"target": "UniProt Q9HC36", "values": [
      {"measurement": "NP40-soluble protein abundance", "setting": "concentration: 0.1mM", "value": "1.02 ± 0.033"},
      {"measurement": "NP40-soluble protein abundance", "setting": "concentration: 0.5mM", "value": "1.03 ± 0.023"}
    ]},
    {"target": "UniProt Q9HAF1 and related entries", "values": [
      {"measurement": "NP40-soluble protein abundance", "setting": "concentration: 0.1mM", "value": "0.972 ± 0.017"},
      {"measurement": "NP40-soluble protein abundance", "setting": "concentration: 0.5mM", "value": "1 ± 0.026"}
    ]},
    {"target": "PRKRIP1 (UniProt Q9H875)", "values": [
      {"measurement": "NP40-soluble protein abundance", "setting": "concentration: 0.1mM", "value": "0.995 ± 0.021"},
      {"measurement": "NP40-soluble protein abundance", "setting": "concentration: 0.5mM", "value": "1.04 ± 0.073"}
    ]},
    {"target": "UniProt Q9HBL7", "values": [
      {"measurement": "NP40-soluble protein abundance", "setting": "concentration: 0.1mM", "value": "1.02 ± 0.056"},
      {"measurement": "NP40-soluble protein abundance", "setting": "concentration: 0.5mM", "value": "1.03 ± 0.033"}
    ]},
    {"target": "UniProt Q9NPA0", "values": [
      {"measurement": "NP40-soluble protein abundance", "setting": "concentration: 0.1mM", "value": "1.04 ± 0.045"},
      {"measurement": "NP40-soluble protein abundance", "setting": "concentration: 0.5mM", "value": "1.03 ± 0.042"}
    ]},
    {"target": "UniProt Q9H9Y6 and related entries", "values": [
      {"measurement": "NP40-soluble protein abundance", "setting": "concentration: 0.1mM", "value": "1.03 ± 0.053"},
      {"measurement": "NP40-soluble protein abundance", "setting": "concentration: 0.5mM", "value": "1 ± 0.086"}
    ]},
    {"target": "UBE2T (UniProt Q9NPD8)", "values": [
      {"measurement": "NP40-soluble protein abundance", "setting": "concentration: 0.1mM", "value": "1.01 ± 0.047"},
      {"measurement": "NP40-soluble protein abundance", "setting": "concentration: 0.5mM", "value": "1.01 ± 0.035"}
    ]},
    {"target": "UniProt Q9H3N1", "values": [
      {"measurement": "NP40-soluble protein abundance", "setting": "concentration: 0.1mM", "value": "0.999 ± 0.012"},
      {"measurement": "NP40-soluble protein abundance", "setting": "concentration: 0.5mM", "value": "0.988 ± 0.06"}
    ]},
    {"target": "TAOK3 (UniProt Q9H2K8)", "values": [
      {"measurement": "NP40-soluble protein abundance", "setting": "concentration: 0.1mM", "value": "1.01 ± 0.022"},
      {"measurement": "NP40-soluble protein abundance", "setting": "concentration: 0.5mM", "value": "1.04 ± 0.03"}
    ]},
    {"target": "UniProt Q9BZJ0-2|Q5JY65 and related entries", "values": [
      {"measurement": "NP40-soluble protein abundance", "setting": "concentration: 0.1mM", "value": "0.99 ± 0.018"},
      {"measurement": "NP40-soluble protein abundance", "setting": "concentration: 0.5mM", "value": "1.03 ± 0.051"}
    ]},
    {"target": "UCK1 (UniProt Q9HA47)", "values": [
      {"measurement": "NP40-soluble protein abundance", "setting": "concentration: 0.1mM", "value": "0.961 ± 0.017"},
      {"measurement": "NP40-soluble protein abundance", "setting": "concentration: 0.5mM", "value": "0.997 ± 0.023"}
    ]},
    {"target": "UniProt Q9H9A5 and related entries", "values": [
      {"measurement": "NP40-soluble protein abundance", "setting": "concentration: 0.1mM", "value": "1.01 ± 0.033"},
      {"measurement": "NP40-soluble protein abundance", "setting": "concentration: 0.5mM", "value": "0.974 ± 0.029"}
    ]},
    {"target": "CACYBP (UniProt Q9HB71)", "values": [
      {"measurement": "NP40-soluble protein abundance", "setting": "concentration: 0.1mM", "value": "0.984 ± 0.012"},
      {"measurement": "NP40-soluble protein abundance", "setting": "concentration: 0.5mM", "value": "1.04 ± 0.057"}
    ]},
    {"target": "UniProt Q9H9B1 and related entries", "values": [
      {"measurement": "NP40-soluble protein abundance", "setting": "concentration: 0.1mM", "value": "0.9757 ± 0.0095"},
      {"measurement": "NP40-soluble protein abundance", "setting": "concentration: 0.5mM", "value": "1 ± 0.022"}
    ]}
  ]
}
